Common to all, as to test: glycan array binding signal (z-score within array); higher = stronger binding
Conditions in all cases: glycan notation: IUPAC condensed, linker removed

Assay [1] addresses Gal(b1-4)GalNAc(b1-3)[Fuc(a1-2)]Gal(b1-4)GlcNAc. In a few lines:
(§1)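 From the Consortium for Functional Glycomics database, 3228 arrays were curated, keeping only those whose protein sequence was available. Binding is given as a within-array Z-score averaged across arrays sharing a protein sequence and across linkers. Negative Z-scores can be read as non-binding.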

For another assay, the target named is Gal(b1-4)Glc. In a few lines:
as §1

The target of a further assay is Gal(b1-4)Glc6S. An outline of the steps: as §1
The target in a further assay is Gal(b1-4)GlcNAc. An outline of the steps: as §1
Assay [2] concerns the target Gal(b1-4)GlcNAc(a1-6)Gal(b1-4)GlcNAc. An outline of the steps:
as §1

The target in a further assay is Gal(b1-4)GlcNAc(b1-2)Man. In a few lines: as §1
In assay [3] the target is Gal(b1-4)GlcNAc(b1-2)Man(a1-3)Man(b1-4)GlcNAc(b1-4)GlcNAc. In a few lines:
as §1

Assay [4] concerns the target Gal(b1-4)GlcNAc(b1-2)Man(a1-3)[Gal(b1-4)GlcNAc(b1-2)Man(a1-6)]Man(b1-4)GlcNAc(b1-4)GlcNAc. In a few lines:
as §1

The target of assay [5] is Gal(b1-4)GlcNAc(b1-2)Man(a1-3)[Gal(b1-4)GlcNAc(b1-2)Man(a1-6)]Man(b1-4)GlcNAc(b1-4)[Fuc(a1-6)]GlcNAc. An outline of the steps: as §1
In assay [6] the target is Gal(b1-4)GlcNAc(b1-2)Man(a1-3)[Gal(b1-4)GlcNAc(b1-2)Man(a1-6)][Gal(b1-4)GlcNAc(b1-4)]Man(b1-4)GlcNAc(b1-4)[Fuc(a1-6)]GlcNAc. In a few lines:
as §1

Assay [7] deals with Gal(b1-4)GlcNAc(b1-2)Man(a1-3)[Gal(b1-4)GlcNAc(b1-2)Man(a1-6)][GlcNAc(b1-4)]Man(b1-4)GlcNAc(b1-4)[Fuc(a1-6)]GlcNAc. In a few lines: as §1
In assay [8] the target is Gal(b1-4)GlcNAc(b1-2)Man(a1-3)[GlcNAc(b1-2)Man(a1-6)]Man(b1-4)GlcNAc(b1-4)GlcNAc. An outline of the steps:
as §1

In assay [9] the target is Gal(b1-4)GlcNAc(b1-2)Man(a1-3)[GlcNAc(b1-4)][Gal(b1-4)GlcNAc(b1-2)Man(a1-6)]Man(b1-4)GlcNAc(b1-4)GlcNAc. In a few lines: as §1
Assay [10] has as its target Gal(b1-4)GlcNAc(b1-2)Man(a1-3)[Man(a1-6)]Man(b1-4)GlcNAc(b1-4)GlcNAc. An outline of the steps:
as §1

Assay [11] concerns the target Gal(b1-4)GlcNAc(b1-2)Man(a1-6)Man(b1-4)GlcNAc(b1-4)GlcNAc. An outline of the steps:
as §1

For assay [12], the target named is Gal(b1-4)GlcNAc(b1-2)Man(a1-6)[GlcNAc(b1-2)Man(a1-3)]Man(b1-4)GlcNAc(b1-4)GlcNAc. An outline of the steps:
as §1

Assay [13] has as its target Gal(b1-4)GlcNAc(b1-2)Man(a1-6)[Man(a1-3)]Man(b1-4)GlcNAc(b1-4)GlcNAc. In a few lines: as §1
The target of assay [14] is Gal(b1-4)GlcNAc(b1-2)[Gal(b1-4)GlcNAc(b1-4)]Man(a1-3)[Gal(b1-4)GlcNAc(b1-2)Man(a1-6)]Man(b1-4)GlcNAc(b1-4)GlcNAc. An outline of the steps:
as §1

Assay [15] deals with Gal(b1-4)GlcNAc(b1-2)[Gal(b1-4)GlcNAc(b1-4)]Man(a1-3)[Gal(b1-4)GlcNAc(b1-2)[Gal(b1-4)GlcNAc(b1-6)]Man(a1-6)]Man(b1-4)GlcNAc(b1-4)GlcNAc. In a few lines: as §1
Assay [16] has as its target Gal(b1-4)GlcNAc(b1-2)[Gal(b1-4)GlcNAc(b1-4)]Man(a1-3)[GlcNAc(b1-4)][Gal(b1-4)GlcNAc(b1-2)Man(a1-6)]Man(b1-4)GlcNAc(b1-4)GlcNAc. In a few lines: as §1
Assay [17] deals with Gal(b1-4)GlcNAc(b1-2)[Gal(b1-4)GlcNAc(b1-4)]Man(a1-3)[GlcNAc(b1-4)][Gal(b1-4)GlcNAc(b1-2)[Gal(b1-4)GlcNAc(b1-6)]Man(a1-6)]Man(b1-4)GlcNAc(b1-4)GlcNAc. In a few lines: as §1
Assay [18] has as its target Gal(b1-4)GlcNAc(b1-2)[Gal(b1-4)GlcNAc(b1-6)]Man(a1-6)[Gal(b1-4)GlcNAc(b1-2)Man(a1-3)]Man(b1-4)GlcNAc(b1-4)GlcNAc. An outline of the steps: as §1

This is one part of the list.

B1: CBP21 (Serratia marcescens), O83009 (protein)
chain: MNKTSRTLLSLGLLSAAMFGVSQQANAHGYVESPASRAYQCKLQLNTQCGSVQYEPQSVEGLKGFPQAGPADGHIASADKSTFFELDQQTPTRWNKLNLKTGPNSFTWKLTARHSTTSWRYFITKPNWDASQPLTRASFDLTPFCQFNDGGAIPAAQVTHQCNIPADRSGSHVILAVWDIADTANAFYQAIDVNLSK
In the case of B1, the “glycan array binding signal (z-score)” value was 0.907 in [1]; -0.469 with Gal(b1-4)Glc; 0.359 in the assay with Gal(b1-4)Glc6S; -0.181 with Gal(b1-4)GlcNAc; 0.397 in [2]; 0.169 with Gal(b1-4)GlcNAc(b1-2)Man. For the same molecule, the “glycan array binding signal (z-score)” value was 0.348 in [3]; 0.478 in [4]; 1.2 in assay [5]; 0.898 in assay [6]; -0.508 in [7]; -1.25 in assay [8]. Besides, the “glycan array binding signal (z-score)” value is -0.579 in [9]; -1.46 in assay [10]; 0.178 in assay [11]; 0.193 in assay [12]; -0.287 in assay [13]; -0.09 in assay [14]. In addition, the “glycan array binding signal (z-score)” value in assay [15] is -0.409; in [16] it was -1.29; in assay [17], -1.35; in assay [18], -0.943.

The values are drawn from the supplement of paper PMC8728848.
